From patent US20260221482A1, “REDOX FLOW BATTERY” (CAMBRIDGE ENTERPRISE LIMITED, priority 2023, published 2026) come the findings set out here.

The nature of series [1]: Galvanostatic cycling of full flow cell vs 4-hydroxy-TEMPO under N2. The note with it: for Coulombic efficiencies: N2, 2 mA cm^−2; for capacity retention over the first five cycles / capacity fade rate: N2.
Series [2] in a line: Galvanostatic cycling in air (25 mM and 50 mM full cells). The note with it: five cycles in air, 5 mA cm^−2.
A short description of series [3]: Extended galvanostatic cycling flow cell studies at 250 mM.
Setting [4] is: 10 mM in 100 mM NaCl, 20 mM 4-hydroxy-TEMPO.
Where [5] appears, read: 10 mM in 100 mM NaCl, 20 mM 4-hydroxy-TEMPO, N2, five charge-discharge cycles, 2 mA cm^−2.
Where [6] appears, read: 5 cycles air, 20 mA cm^−2, after the 40 mA cm^−2 step.
Where [7] appears, read: air, 30 mA cm^−2 (200 cycles for 11, 100 for 17).
The mark [8] stands for this setting: air, 40 mA cm^−2 (111 cycles for 11, 67 for 17).

“And” between values parts separate entries of the source, which are not always exact repeats. Equal entries are not always repeated.

Regarding `C[N+](C)(C)CCC[n+]1ccc(-c2ccc(-c3ccc(-c4cc[n+](CCC[N+](C)(C)C)cc4)s3)s2)cc1` [Compound 18], the Coulombic efficiencies in series [1] (setting [4]) was found to be 79.7±2.8. Further, the “capacity retention over the first five cycles” value in series [1] (10 mM) is given as “about 92%”.
Take `C[N+](C)(C)CCC[n+]1ccc(-c2ccc(-c3cc[n+](CCC[N+](C)(C)C)cc3)cc2)cc1` [Compound 11]: the Coulombic efficiency in series [1] (1 mM, N2, 0.2 mA cm^−2) was 18%; in series [1] (5 mM, N2, 1 mA cm^−2), 74%; in series [1] (setting [5]), 77% and 76.8 ± 0.3%; in series [3] (5 cycles N2, 20 mA cm^−2), 98.87 ± 0.90%; in series [3] (setting [6]) it was 94.52 ± 0.50%; in series [3] (15 cycles air, 20 mA cm^−2), 87.53 ± 0.13%. In addition, the Coulombic efficiency in series [3] (setting [7]) is given as 96.64 ± 0.31%; in series [3] (setting [8]) it was 93.62 ± 0.46%. Further, the capacity fade rate came to 9.64 % per cycle in series [1] (5 mM) and 0.01 % per cycle in series [1] (10 mM). Besides, the entries for the “capacity upon introduction of air” value in series [2] (25 mM in 500 mM NaCl) and in series [2] (50 mM in 500 mM NaCl) were “fell sharply” and “remained almost unchanged”, respectively. In series [3] (first 130 cycles), the “initial jump in capacity upon exposure to air” value was found to be 12.337%.
Regarding `C[N+](C)(C)CCC[n+]1ccc(-c2ccc3cc(-c4cc[n+](CCC[N+](C)(C)C)cc4)ccc3c2)cc1` [Compound 13], the Coulombic efficiency in series [1] (setting [5]) was 74.2 ± 2.7%.
In the case of `C[N+](C)(C)CCC[n+]1ccc(-c2ccc(-c3cc[n+](CCC[N+](C)(C)C)cc3)s2)cc1` [Compound 17], in series [1] (setting [4]), the Coulombic efficiencies is 78.6±0.3. In addition, the “capacity retention over the first five cycles” value in series [1] (10 mM) was “about 99%”. The “capacity upon introduction of air” value in series [2] (50 mM in 500 mM NaCl) is “remained almost unchanged”. For the same molecule, the Coulombic efficiency in series [3] (5 cycles N2, 20 mA cm^−2) turned out to be 97.55 ± 0.18%; in series [3] (setting [6]) it was 96.78 ± 0.69%; in series [3] (15 cycles air, 20 mA cm^−2) it was 96.49 ± 0.71%; in series [3] (setting [7]) it was 97.89 ± 1.17%; in series [3] (setting [8]), 98.59 ± 2.87%.
With `C[N+](C)(C)CCC[n+]1ccc(-c2cc[n+](CCC[N+](C)(C)C)cc2)cc1` [Compound 10], the Coulombic efficiency in series [1] (setting [5]) is 80.5 ± 0.3%.
